Source: ChEMBL document CHEMBL3988442, “University of Dundee, Small-Polar-MMV Screening Library” (2021).

Protein sequences, listed by entry. Tags and fused reporters are not part of them.
UniProt E9BF75, entry or part of it: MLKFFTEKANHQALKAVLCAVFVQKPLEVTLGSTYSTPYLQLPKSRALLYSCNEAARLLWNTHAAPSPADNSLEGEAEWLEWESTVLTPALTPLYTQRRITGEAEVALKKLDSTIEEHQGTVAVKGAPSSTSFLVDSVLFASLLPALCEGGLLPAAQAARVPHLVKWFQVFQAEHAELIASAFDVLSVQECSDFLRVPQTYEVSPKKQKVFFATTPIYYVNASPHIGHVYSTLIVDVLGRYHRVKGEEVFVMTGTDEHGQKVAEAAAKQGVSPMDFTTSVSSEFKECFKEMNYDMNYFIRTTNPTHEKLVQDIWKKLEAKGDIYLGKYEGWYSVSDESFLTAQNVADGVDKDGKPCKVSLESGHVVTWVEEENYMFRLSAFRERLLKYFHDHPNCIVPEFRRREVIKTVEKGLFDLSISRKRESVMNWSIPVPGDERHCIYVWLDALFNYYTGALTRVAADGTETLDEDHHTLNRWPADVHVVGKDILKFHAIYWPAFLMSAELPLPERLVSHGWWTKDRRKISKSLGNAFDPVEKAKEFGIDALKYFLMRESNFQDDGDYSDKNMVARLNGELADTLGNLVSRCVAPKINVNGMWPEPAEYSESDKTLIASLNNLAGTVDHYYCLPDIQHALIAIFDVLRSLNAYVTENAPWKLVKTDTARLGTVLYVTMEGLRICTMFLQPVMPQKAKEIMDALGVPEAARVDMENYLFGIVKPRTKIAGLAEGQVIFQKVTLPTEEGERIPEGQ

All values are in %. How 0% and 100% were set is not recorded. Most values in the screen are low, and negative values occur. This is an unselected part of the compounds tested. A dash means the value is not listed here; it may have been measured.

Mtb heat-shock: 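Assay on Mycobacterium tuberculosis, filed only as a heat shock assay from Cornell; the read-out is not stated. The concentration is filed as 10 mM, unlikely as a test dose, so the dose is not known. Higher reads as stronger inhibition (inferred: compounds with an IC50 in retests scored well above the rest). About 69,000 compounds were tested under these conditions; 1.4% (about 930) showed 50% or more at least once.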
Mtb growth Cornell: 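Whole-cell assay for inhibitors of Mycobacterium tuberculosis growth, labelled Cornell in the record; the read-out is not stated. The concentration is filed as 10 mM, unlikely as a test dose, so the dose is not known. Higher means stronger inhibition (inferred from two other growth screens of the library). About 53,000 compounds were tested under these conditions; 1.7% (about 900) showed 50% or more at least once.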
LdMetRS: 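Primary screen of methionyl-tRNA synthetase; the read-out is not stated. Target: Methionyl-tRNA synthetase (putative), Leishmania donovani (UniProt E9BF75). The test concentration is not given. The values are filed as inhibition. Size under these conditions: about 68,000 compounds, about 24 of them at 50% or above in at least one test.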

| # | SMILES | Mtb heat-shock | Mtb growth Cornell | LdMetRS |
|---|---|---|---|---|
| 1 | `CS(=O)(=O)Cc1nc(CN2CCCc3sccc3C2)cs1` | -23.32 | 15.04 | 10 |
| 2 | `Cn1cc(-c2ccnc(NCC3CCCCO3)n2)cn1` (stereo unspecified) | -20.5 | -14.26 | 4.795 |
| 3 | `CC1(C)CC(N(Cc2ccccc2)Cc2cccnc2)CC(C)(C)N1.O=C(O)CC(O)(CC(=O)O)C(=O)O` | -16.9 | -27.6 | - |
| 4 | `O=C(O)C(F)(F)F.[H][C@@]12CCN(c3nnc(C)s3)C[C@]1([H])O[C@@H](C(=O)N1CCOCC1)C2` | 5.897 | 9.558 | - |
| 5 | `c1coc(CNCC2Cn3nncc3CO2)c1` (stereo unspecified) | 44.16 | -14.67 | 12.47 |
| 6 | `O=C(O)C(F)(F)F.[H][C@@]12CN(Cc3ccc(C)cc3)C[C@]1([H])CN(c1ncc(F)cn1)C2` | -28.99 | 28.38 | - |
| 7 | `CCN1CCN(CCCNc2ncccn2)CC1` | -20.47 | - | 9.375 |
| 8 | `COc1ccc(C(=O)N2CCOCC(CO)C2)cc1N1CCOCC1` (stereo unspecified) | -4.5 | 3.459 | 13.52 |
| 9 | `Cc1cc(C(=O)N2CCC(CCn3cccn3)CC2)c(C)o1` | -0.1724 | 17.61 | 11.56 |
| 10 | `[H][C@@]12C[C@H](C(=O)N(C)C)[C@@]([H])(CN(S(=O)(=O)CCC)C1)O2` | -4.014 | 15.81 | - |
| 11 | `CC(C)c1nc(C2CCCN(C(=O)c3ccc4[nH]nnc4c3)C2)no1` (stereo unspecified) | 10.49 | - | 15.47 |
| 12 | `COCc1nnc(-c2cccc(C(=O)OC(C)C)c2)o1` | -16.55 | 18.86 | 5.988 |
| 13 | `CN(C)Cc1ccnc(C2CCCN2Cc2ccncc2)n1` (stereo unspecified) | -23.84 | -14.22 | 7.192 |
| 14 | `CCOC(=O)NCCC(=O)NCc1ccc(Oc2cccc(F)c2)nc1` | -7.618 | - | 15.53 |
| 15 | `COCC1c2c(cnn2C)CCN1Cc1ccc(C)cc1` (stereo unspecified) | - | - | 12.97 |
| 16 | `CC(C)(C)OC(=O)N1CCCC[C@H]1C(=O)NCc1nccs1` | 13.37 | 12.93 | 9.294 |
| 17 | `O=C(NCc1csc(Br)c1)N1CCC(O)CC1` | -17.64 | - | 13.02 |
| 18 | `Cc1nc(CNC(=O)c2cc(COc3ccccc3)[nH]n2)n[nH]1` | 2.801 | - | 14.85 |
| 19 | `Cc1nnc(NC(=O)CN2CCOC(Cn3cccn3)C2)s1` (stereo unspecified) | 13.5 | -17.68 | 13.4 |
| 20 | `Cc1cnc2n(c1=O)CC(C(=O)Nc1ccon1)CS2` (stereo unspecified) | -2.86 | 20.83 | 15.23 |
| 21 | `CC(C)c1nc(CNC(C(=O)N2CCOCC2)C(C)C)no1` (stereo unspecified) | -9.963 | 6.484 | 4.348 |
| 22 | `CCC(NCc1ccccc1Cl)c1ccccc1OCC(=O)NC` (stereo unspecified) | -4.173 | - | 3.621 |
| 23 | `Cc1cn2c(n1)CCC(NC(=O)c1cc[nH]n1)C2` (stereo unspecified) | -2.878 | 10 | 18.21 |
| 24 | `Cc1oc(C(=O)O)cc1S(=O)(=O)Nc1cc(F)ccc1F` | -28.83 | -32.4 | 3.134 |
| 25 | `CC[C@@H]1N(Cc2ccncc2)CCC[C@]12CCC(=O)N2C` | - | - | -7.372 |
| 26 | `O=C(Cc1ccc(-c2ccccc2)cc1)N1CCOCC(O)C1` (stereo unspecified) | 4.139 | 6.569 | 13.54 |
| 27 | `O=C(O)C(F)(F)F.[H][C@@]12CN(CC(=O)N(C)C)C[C@]1([H])C(=O)N(Cc1cccc(F)c1)C2` | -6.459 | 15.1 | - |
| 28 | `CC1CN(CC(=O)Nc2nccs2)CCN1Cc1nccn1C` (stereo unspecified) | 4.951 | - | 17.46 |
| 29 | `COc1cc2c(cc1OC)CN(C(=O)Cn1nc(C)cc1C)CC2` | 22.97 | 3.009 | 17.01 |
| 30 | `CSc1ccc(C(=O)N2CC(=O)N(Cc3ccccc3)CC(O)C2)cc1` (stereo unspecified) | 28.35 | 11.79 | 5.753 |
| 31 | `[H][C@]12CCN(C(=O)COC)[C@@]1([H])CC[C@@H](COCc1csc(C)n1)O2` | 13.23 | 27 | - |
| 32 | `CCOc1cccc2c1OCC(C(=O)NS(=O)(=O)c1cncc(Br)c1)=C2` | -2.698 | 44.21 | 8.547 |
| 33 | `COCCN1CCc2c(cnc(-c3ccoc3)c2C(=O)O)C1.O=C(O)C(F)(F)F` | -43.35 | -4.696 | - |
| 34 | `Nc1cc2c(nn1)CCN(C(=O)c1cccc3c1OCCO3)C2` | -3.215 | -10.53 | 9.312 |
| 35 | `O=C(c1cccnc1)N1CCN2C[C@H](Oc3cncnc3)C[C@H]2C1` | - | - | 14.01 |
| 36 | `c1csc(CN2CCC3(CC2)CCN(CC2CCOCC2)C3)n1` | - | - | 5.882 |
| 37 | `CCc1noc(C(C)N2CCN(Cc3nnc(C4CC4)o3)CC2)n1` (stereo unspecified) | 8.605 | - | 9.091 |
| 38 | `COc1ccc(CN2C[C@@H]3COC[C@H](N4CCN(C)CC4)[C@@H]3C2)cc1` | - | - | 7.692 |
| 39 | `Cc1ccc(N2CCCN(C(=O)c3cc(CC(C)C)n[nH]3)CC2)nn1` | -19.4 | -6.746 | 12.24 |
| 40 | `Cc1nc(Nc2ncccn2)cc(C2CCCN2CC(C)C)n1` (stereo unspecified) | 4.562 | - | 7.317 |
| 41 | `Cc1cccc(CN2C(=O)OCC2CO)c1F` (stereo unspecified) | 7.619 | -2.044 | 8.527 |
| 42 | `O=C(NCc1cn2c(n1)CN(Cc1ccccn1)CC2)C1CCC1.O=C(O)C(F)(F)F.O=C(O)C(F)(F)F` | -12.3 | -17.38 | - |

The last 4 entries again:

- Cc1ccc(N2CCCN(C(=O)c3cc(CC(C)C)n[nH]3)CC2)nn1 : Mtb heat-shock: -19.4%; Mtb growth Cornell: -6.746%; LdMetRS: 12.24%
- Cc1nc(Nc2ncccn2)cc(C2CCCN2CC(C)C)n1 (stereo unspecified) : Mtb heat-shock: 4.562%; LdMetRS: 7.317%
- Cc1cccc(CN2C(=O)OCC2CO)c1F (stereo unspecified) : Mtb heat-shock: 7.619%; Mtb growth Cornell: -2.044%; LdMetRS: 8.527%
- O=C(NCc1cn2c(n1)CN(Cc1ccccn1)CC2)C1CCC1.O=C(O)C(F)(F)F.O=C(O)C(F)(F)F : Mtb heat-shock: -12.3%; Mtb growth Cornell: -17.38%